# At least one peptide structure holds a part that was inferred or is arguable (an end, a ring closure or a residue). Residues, ends and D or L forms follow the SMILES beside them. *: point of attachment. Lauroyl = CCCCCCCCCCCC(=O)*
# Assays:
# [1] = Critical aggregation concentration by Nile red maximum emission; assay type: physicochemical; conditions: Nile Red maximum fluorescence emission
# [2] = Small angle X-ray scattering (SAXS) of nanostructures; assay type: physicochemical; conditions: polydisperse core-shell fit, 5 mM in PBS
# Procedure: Small angle X-ray scattering (SAXS) experiments were performed at the Advanced Photon Source, Argonne National Laboratory. The X-ray energy (15 keV) was selected using a double-crystal monochromator with a 30 mm offset. Samples were dissolved at a concentration of 5 mM in PBS and placed in 1.5 mm quartz capillary tubes. The typical incident X-ray flux on the sample was ˜1×10^12 photons/s with a 0.2×0.3 mm^2 collimator, and samples were exposed for 4 s. The 1D scattering profiles were obtained by azimuthal integration of the 2D patterns, with scattering from the capillaries and PBS buffer subtracted as background. Scattering profiles were then plotted on a relative scale as a function of the scattering vector q=(4π/λ) sin(θ/2), where θ is the scattering angle.
# [3] = tested on: vascular smooth muscle cells (VSMC); assay: VSMC proliferation by 3H-thymidine incorporation; assay type: cell-based; conditions: up to 50 μM, 24 h
# injured carotid artery = assay: In vivo binding of fluorescently-labeled nanostructures, rat carotid balloon injury model; conditions: for binding to the injured artery: 5 mg tail vein, fluorescently labeled (AlexaFluor 546)
# [4] = 1 h post injection, doses 1 to 10 mg
compound,measurement,setting,value
"CCCCCCCCCCCC(=O)NCCCC[C@H](NC(=O)[C@@H](NC(=O)[C@@H](NC(=O)[C@H](C)NC(=O)[C@H](C)NC(=O)[C@H](CCCCN)NC(=O)[C@H](CCCCN)NC(=O)[C@H](CS)NC(=O)[C@H](CCCCN)NC(=O)[C@@H]1CCCN1C(=O)[C@H](CC(C)C)NC(=O)[C@H](Cc1c[nH]c2ccccc12)NC(=O)[C@@H](NC(=O)[C@H](CC(C)C)NC(=O)[C@@H](N)CCCCN)C(C)C)C(C)C)C(C)C)C(=O)O [targeted nanofiber, KLVWLPKCK2A2V2K(C12)] (H-KLVWLPKCKKAAVVK(Lauroyl)-OH; N-terminus and C-terminus assumed)",Critical aggregation concentration (CAC),[1],< 300 nM
same,average diameter,[2],6 nm
same,effect on VSMC proliferation,[3],did not have an effect
same,binding to the injured artery,injured carotid artery,binding to the injured artery was observed
same,binding to the injured artery,injured carotid artery; listed as targeted nanofibers,localized to the site of arterial intervention
same,duration of binding to the injured vessel,"injured carotid artery; 5 mg, harvest 1 hour to 6 days",up to 2 days
same,dose giving near complete circumferential binding to the luminal surface,injured carotid artery; [4],≥ 2.5 mg
same,lowest dose with detectable binding to the luminal surface of the injured vessel,injured carotid artery; [4],1.0 mg

# Source: US9517275B2, “Targeted therapy for the prevention of restenosis in the cardiovascular system” (Northwestern University, priority 2013, dated 2016)
